These are yes or no findings as the source states them, for the method shown. In cells and extracts the contact can be indirect. Some binding calls cover weakened binding; strength is not graded here.

Protein sequences, listed by entry. Tags and fused reporters are not part of them.
UniProt Q9UGU0: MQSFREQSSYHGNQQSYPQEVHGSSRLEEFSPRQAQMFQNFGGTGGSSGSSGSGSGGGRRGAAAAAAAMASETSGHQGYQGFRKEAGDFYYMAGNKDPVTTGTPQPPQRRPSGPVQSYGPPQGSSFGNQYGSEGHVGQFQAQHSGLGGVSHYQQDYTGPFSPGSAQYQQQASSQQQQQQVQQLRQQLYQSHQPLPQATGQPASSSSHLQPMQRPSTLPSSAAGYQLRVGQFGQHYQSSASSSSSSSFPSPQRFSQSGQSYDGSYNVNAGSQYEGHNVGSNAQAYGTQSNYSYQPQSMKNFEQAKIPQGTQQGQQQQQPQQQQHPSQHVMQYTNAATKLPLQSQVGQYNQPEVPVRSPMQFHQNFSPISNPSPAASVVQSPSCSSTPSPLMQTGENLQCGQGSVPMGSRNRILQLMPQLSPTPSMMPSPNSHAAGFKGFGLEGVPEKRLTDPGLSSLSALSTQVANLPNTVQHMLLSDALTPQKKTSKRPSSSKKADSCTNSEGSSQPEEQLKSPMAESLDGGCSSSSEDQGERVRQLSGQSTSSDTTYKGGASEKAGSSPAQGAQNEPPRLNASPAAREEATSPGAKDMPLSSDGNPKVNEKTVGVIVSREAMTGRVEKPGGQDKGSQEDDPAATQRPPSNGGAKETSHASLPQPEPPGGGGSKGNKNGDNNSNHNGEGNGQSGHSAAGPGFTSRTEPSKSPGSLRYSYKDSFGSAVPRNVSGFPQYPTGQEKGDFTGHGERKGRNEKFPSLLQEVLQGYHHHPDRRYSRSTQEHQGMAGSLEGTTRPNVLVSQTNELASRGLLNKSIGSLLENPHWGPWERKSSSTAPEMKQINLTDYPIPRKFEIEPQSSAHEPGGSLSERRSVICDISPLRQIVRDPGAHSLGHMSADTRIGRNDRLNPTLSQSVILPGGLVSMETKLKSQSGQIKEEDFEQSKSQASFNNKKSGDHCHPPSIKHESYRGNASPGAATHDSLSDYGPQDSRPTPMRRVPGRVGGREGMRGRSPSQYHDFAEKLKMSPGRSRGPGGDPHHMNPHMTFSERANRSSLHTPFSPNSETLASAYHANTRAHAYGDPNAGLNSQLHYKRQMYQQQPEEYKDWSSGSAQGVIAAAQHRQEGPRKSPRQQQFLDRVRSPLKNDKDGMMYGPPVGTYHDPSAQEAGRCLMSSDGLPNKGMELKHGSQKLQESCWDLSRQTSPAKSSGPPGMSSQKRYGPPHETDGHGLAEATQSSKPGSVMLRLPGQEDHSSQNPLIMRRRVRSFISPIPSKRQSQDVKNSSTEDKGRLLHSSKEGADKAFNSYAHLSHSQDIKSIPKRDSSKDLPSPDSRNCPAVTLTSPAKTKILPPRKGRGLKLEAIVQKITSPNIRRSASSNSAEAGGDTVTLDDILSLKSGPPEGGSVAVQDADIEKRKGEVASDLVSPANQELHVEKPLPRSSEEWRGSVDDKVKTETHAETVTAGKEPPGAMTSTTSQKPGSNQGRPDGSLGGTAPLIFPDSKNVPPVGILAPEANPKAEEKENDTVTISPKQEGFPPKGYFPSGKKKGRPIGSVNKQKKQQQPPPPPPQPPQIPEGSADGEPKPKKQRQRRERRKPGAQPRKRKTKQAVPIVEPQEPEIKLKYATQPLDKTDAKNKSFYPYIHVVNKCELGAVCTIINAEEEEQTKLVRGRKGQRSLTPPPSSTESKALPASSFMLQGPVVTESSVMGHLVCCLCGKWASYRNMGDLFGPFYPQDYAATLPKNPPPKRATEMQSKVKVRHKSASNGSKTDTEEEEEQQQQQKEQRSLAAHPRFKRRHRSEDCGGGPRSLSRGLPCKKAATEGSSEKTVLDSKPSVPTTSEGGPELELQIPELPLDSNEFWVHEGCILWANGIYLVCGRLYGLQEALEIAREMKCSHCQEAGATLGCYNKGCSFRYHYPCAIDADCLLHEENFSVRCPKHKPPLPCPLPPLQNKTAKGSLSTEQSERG
UniProt P10275: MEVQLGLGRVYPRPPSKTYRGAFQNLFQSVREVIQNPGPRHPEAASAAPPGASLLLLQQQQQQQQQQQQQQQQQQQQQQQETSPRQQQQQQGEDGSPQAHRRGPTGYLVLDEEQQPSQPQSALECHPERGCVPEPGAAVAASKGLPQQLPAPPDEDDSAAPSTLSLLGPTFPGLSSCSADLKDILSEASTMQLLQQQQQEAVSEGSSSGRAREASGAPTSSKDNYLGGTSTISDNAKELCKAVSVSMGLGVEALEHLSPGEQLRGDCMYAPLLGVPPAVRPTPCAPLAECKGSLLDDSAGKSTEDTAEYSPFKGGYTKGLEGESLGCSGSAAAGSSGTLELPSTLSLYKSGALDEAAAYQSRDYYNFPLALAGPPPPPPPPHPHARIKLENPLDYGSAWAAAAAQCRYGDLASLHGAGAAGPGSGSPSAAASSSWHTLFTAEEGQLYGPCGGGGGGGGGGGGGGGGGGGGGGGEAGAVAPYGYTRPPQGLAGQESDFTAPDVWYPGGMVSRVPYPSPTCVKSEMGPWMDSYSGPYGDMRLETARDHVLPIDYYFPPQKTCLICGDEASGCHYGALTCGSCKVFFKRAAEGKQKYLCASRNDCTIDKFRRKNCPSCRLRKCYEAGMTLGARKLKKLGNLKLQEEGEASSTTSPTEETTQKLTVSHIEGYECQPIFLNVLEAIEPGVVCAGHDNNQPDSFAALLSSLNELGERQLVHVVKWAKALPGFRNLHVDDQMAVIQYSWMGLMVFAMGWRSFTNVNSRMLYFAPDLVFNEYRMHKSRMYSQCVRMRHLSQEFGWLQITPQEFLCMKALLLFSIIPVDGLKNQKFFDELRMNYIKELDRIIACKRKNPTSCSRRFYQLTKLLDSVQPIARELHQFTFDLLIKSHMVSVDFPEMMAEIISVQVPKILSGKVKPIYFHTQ

Assay [1] has as its target in vitro translated 35S-methionine labeled SPBP (HA-SPBP) (UniProt Q9UGU0). Kind of assay: co-IP; both proteins in vitro translated with 35S-methionine, precipitated with anti-SPBP antibody or preimmune serum.
Assay [2] concerns the target EGFP-AR (UniProt P10275). The experiment in a line: co-IP; HeLa cells cotransfected with pDestEGFP-AR and pDestHA-SPBP, stimulated with 10^-7 M R1881; precipitated with anti-GFP, blotted with anti-SPBP.
For assay [3], the target named is EGFP-AR (UniProt P10275). Kind of assay: co-IP; HeLa cells cotransfected with pDestEGFP-AR and pDestHA-SPBP, not stimulated with R1881; precipitated with anti-GFP, blotted with anti-SPBP.

As for “GFP-AR, in vitro translated (from UniProt P10275 1-920)”, the binding result in assay [1] was “binds”.
Turning to HA-SPBP (from UniProt Q9UGU0 1-1960), the binding entry in assay [2] was “binds”; in assay [3], “no binding (condition: cells not stimulated with R1881)”.

The values above are taken from paper PMC3174178.
